# Data published in PubChem BioAssay AID2685 (National Center for Advancing Translational Sciences (NCATS), 2010).
# The campaign covered roughly 320,000 compounds. About 2,100 (0.66%) were called active. Inconclusive means that the source gave no clear call. Such entries were picked first, then a sample of the others. The call rests on the fitted dose curve; in most records, active means well fitted inhibition curve with a large enough effect in the signal ratio, with a control signal flat (not every such curve was filed as active); inconclusive means small, poorly fitted or top-dose-only effect, or effect the other way, or a change in a side signal; inactive means flat fitted curve, though single readings scatter; the % refers to the signal ratio. A potency beside an inconclusive call is a rough fit, not a confirmed value.
# Experiment: qHTS Assay for Lipid Storage Modulators in Drosophila S3 Cells
# Settings: BODIPY lipid droplet fluorescence, 18-24 h, cells fed with added oleic acid; lipid storage change, negative = inhibition: at 46.1 µM (top of the series) unless noted
# In short: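 Drosophila S3 cells got compounds at several concentrations plus oleic acid (400 uM solution). Laser-scanning cytometry with 488 nm excitation read lipid droplets at 500-530 nm and cells at 575-640 nm. Percent activity was relative to 20 uM Triacsin C.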
# On the % scale 0 is the no-effect control and ±100 the full control effect; potency means the concentration at half of the fitted maximal effect.
SMILES,"lipid storage change, negative = inhibition",Potency
CCCCn1c(N)c(N(CC(C)C)C(=O)c2ccco2)c(=O)[nH]c1=O,inconclusive,
O=C(COC(=O)c1ccccc1-n1cnnn1)c1ccc(Br)cc1,inconclusive: 17.8%,
CC(=O)NC(Cc1cccc(C)c1)C(=O)NC1CCN(C(=O)NCc2ccccc2)CC1 (centres undefined),inactive,
O=C(c1ccc2nsnc2c1)N1CCN(c2ccc([N+](=O)[O-])cc2)CC1,,"inconclusive: 6.51 µM [activator, partial curve, poor fit]"
O=S(=O)(c1ccc2c(c1)OCCO2)N1CCC(n2cnc3cc(F)ccc32)CC1,inconclusive: -34.4%,
CCN1CCN(C(=O)Cn2ncc3c2-c2ccccc2OC3)CC1,inconclusive: -3.04% [at 9.22 µM],
Cc1cc(C)c(C(=O)COC(=O)c2cccc(S(=O)(=O)NCc3ccccc3)c2)cc1C,inconclusive: 1.97%,
CC1(C)OC(=O)C(=NNc2ccc(Br)cc2)C(=O)O1,inconclusive: 26.5%,
COC(=O)Nc1ccc(S(=O)(=O)N2CCC(C(=O)N(C)C3CCCCC3)CC2)cc1,inconclusive: 2.67%,
O=S(=O)(NCCN1CCOCC1)c1cccs1,inconclusive: 9.81%,
CC(Sc1nnc(C2CC2)n1C1CC1)C(=O)NC1(C#N)CCCCC1 (centres undefined),,"inconclusive: 0.0052 µM [activator, full curve, poor fit]"
Cc1ccc(NC(=O)CSc2ncc3ccccn23)cc1C,inconclusive: -27.6%,
COc1cccc(-n2nnc(S(=O)(=O)c3ccc(C)cc3)c2N)c1,inconclusive: 5.73%,
O=C(CC(c1ccccc1)c1ccccc1)Nc1nn[nH]n1,inconclusive: -3.23%,
O=Cc1ccccc1OCc1ccc2c(c1)OCO2,inconclusive: -39.9%,
C/C(=N/Nc1ccc(C)cc1)C1(C)N(O)C(C)(C)C(c2ccco2)=[N+]1[O-] (centres undefined),inconclusive: 4.07%,
Cc1ccccc1C(=O)Nc1c2c(nn1C(C)(C)C)CS(=O)(=O)C2,inconclusive: 29.3%,
COc1cc2c(cc1OC)CN(C(=O)C1CCCN(C(=O)c3ccc(Cl)cc3)C1)CC2 (centres undefined),,"inconclusive: 0.103 µM [falling, full curve, poor fit]"
COc1ccc(NC(=O)COC(=O)c2ccc3ccccc3n2)cc1,inconclusive: 15.4%,
COc1cc(C(=O)N/N=C(\C)c2ccc(NC(=O)Cc3ccccc3)cc2)ccc1O,inconclusive: -20.2%,
O=C(COc1coc(CN2CCN(c3ccccc3)CC2)cc1=O)Nc1ccccc1F,inconclusive,
Cc1cccc(C(=O)Nc2ccc(C(=O)N/N=C/c3cccc(C)n3)cc2)c1,inconclusive: 180%,
CC(=O)Nc1ccc(-n2c(C)ccc2-c2ccccc2)cc1,inactive,
Cc1ccc(S(=O)(=O)N2C(=O)C(C)SC2=Nc2ccccc2)cc1 (centres undefined),inconclusive: 0.143%,
COc1ccc(C(=O)/C=C/Nc2cc(C)on2)c(OC)c1,,"inconclusive: 2.31 µM [activator, full curve, poor fit]"
COc1cc(S(=O)(=O)NCCN2CCOCC2)ccc1-n1cnnn1,inconclusive: -19.4%,
O=c1c2ccccc2nc(-c2ccco2)n1Cc1ccccc1,inconclusive: 16.2%,

# Exported with tabs: part of the list above
SMILES	lipid storage change, negative = inhibition	Potency
CC(=O)Nc1ccc(-n2c(C)ccc2-c2ccccc2)cc1	inactive	
Cc1ccc(S(=O)(=O)N2C(=O)C(C)SC2=Nc2ccccc2)cc1 (centres undefined)	inconclusive: 0.143%	
COc1ccc(C(=O)/C=C/Nc2cc(C)on2)c(OC)c1		inconclusive: 2.31 µM [activator, full curve, poor fit]

# Later entries:

SMILES,"lipid storage change, negative = inhibition",Potency
CCOC(=O)c1[nH]c2cc3c(cc2c1NC(=O)CN1CCc2ccccc2C1)OCO3,inconclusive: -21%,
CC12CCC(C(=O)Nc3nc4ccc(Br)cc4s3)(OC1=O)C2(C)C (centres undefined),inconclusive: -52.2% [cytotoxic] [at 0.369 µM],
O=C(Nc1ccccc1C(=O)NCc1ccc(Cl)cc1)c1ccco1,,"inconclusive: 1.84 µM [activator, partial curve]"
CCN(C(=O)COc1cccnc1[N+](=O)[O-])C1CCS(=O)(=O)C1 (centres undefined),inconclusive: -7.18%,
CCn1c(C)cc(/C=C2/NC(=O)N(Cc3ccccc3F)C2=O)c1C,,"inconclusive: 1.3 µM [activator, full curve]"
O=C(Nc1ccccn1)C1(c2cccs2)CCOCC1,inconclusive: 11.5%,
CC(C(=O)Nc1cccc([N+](=O)[O-])c1)[n+]1ccccc1 (centres undefined),inconclusive: -21.3%,
O=C(Nc1cccc(Cl)c1)c1ccc(F)c(S(=O)(=O)N2CCN(c3ccccn3)CC2)c1,inconclusive: 33.5%,
Cc1cc(C)n(-c2nc(NCCCN(C)C)c3c4c(sc3n2)COC(C)(C)C4)n1,inconclusive: 31.3%,
O=C(CN1CCc2ccccc2C1)Nc1ccc(OC(F)(F)F)cc1,inconclusive: -22.4%,
Cc1ccc(OCCC(=O)O)cc1,inconclusive: 6.03%,
CSc1nc(-c2ccc(Cl)cc2Cl)[nH]c(=O)c1C#N,,active: 32.6 µM
O=c1c2ccccc2c(C=NCCc2ccccc2)c(O)n1Cc1ccccc1,inconclusive: 182%,
O=C(N/C(=C\c1ccc(Cl)cc1)C(=O)N1CCOCC1)c1ccco1,inconclusive: 4.94%,
C=CCN(C(=O)c1csnn1)C(C(=O)NC1CCCC1)c1ccc(F)cc1 (centres undefined),inconclusive: 5.61%,
Cc1ccc(O)c(C(CC(=O)NCc2ccco2)c2ccccc2)c1 (centres undefined),inconclusive: 1.81%,
COc1ccc(/C=C/C(=O)Nc2sc(Cc3ccccc3)c(C)c2C(N)=O)cc1,,"inconclusive: 2.31 µM [activator, single point]"
COC(=O)c1nn(-c2ccccc2)c(=O)cc1O,inconclusive: -33.8%,
O=C(CSc1ccccc1C(=O)O)Nc1cccc(C(=O)O)c1,inconclusive: -0.105%,
CCOc1ccc(NC(=O)c2ccc(F)c(S(=O)(=O)N3CCN(c4ccccn4)CC3)c2)cc1,inconclusive: -22.4%,
COc1cccc(NC(=O)CN(C)CC(=O)NCc2ccco2)c1,,"inconclusive: 0.0731 µM [activator, full curve, poor fit]"
COc1ccc(C(=O)N2CCC(C(=O)Nc3ccc4c(c3)OCO4)CC2)cc1,inconclusive: 30.6%,
O=C(CN1C(=O)C(=O)N(C2CCCC2)C1=O)NCCc1ccc(Cl)cc1Cl,,active: 4.11 µM
Cc1ccc(-c2noc(CSc3nnc(Cc4cccs4)n3-c3ccccc3)n2)cc1,inconclusive: 1.77%,
Cc1cc2c(=O)n(C)c(SCC(=O)c3cc4ccccc4o3)nc2s1,inconclusive: 35.9%,
COc1cc(NC(=O)CSc2nnc3ccc(-c4cccnc4)nn23)cc(OC)c1,inconclusive,
Cc1ccccc1N1CCN(C(=O)C2CCC(=O)N(C3CCCC3)C2)CC1 (centres undefined),,"inconclusive: 0.0046 µM [activator, full curve, poor fit]"

SMILES,"lipid storage change, negative = inhibition",Potency
CN1CCc2c(sc3nc(SCC(=O)N4CCOCC4)nc(N)c23)C1,inconclusive: -33.4%,
O=C(Nc1ccc(Br)cc1)c1cccc(N2C(=O)C3C4C=CC(C4)C3C2=O)c1 (centres undefined),,"inconclusive: 16.4 µM [falling, single point]"
CC1Cc2ccccc2N1C(=O)CSc1ncc(-c2ccc(F)cc2)n1C (centres undefined),,"inconclusive: 2.91 µM [activator, single point]"
CC1(C)CC2(CC(c3ccccc3F)c3ccc(O)c(O)c3O2)NC(=S)N1 (centres undefined),inconclusive: 28.8%,
O=C(O)c1c2c(nc3ccc(S(=O)(=O)N4CCC(C(=O)NC5CCCC5)CC4)cc13)CCCCC2,inconclusive: 1.07%,
CCOC(=O)c1ccc2c(c1)nc(COc1ccc(OC)cc1)n2CC,,"inconclusive: 10.3 µM [activator, partial curve, poor fit]"
CSCCC(NC(=O)C1CCC(C)CC1)C(=O)NCCN1CCOCC1 (centres undefined),inconclusive: -18.8%,
CC(=O)c1sc2nc(SCC(=O)N3CCCCC3)[nH]c(=O)c2c1C,inconclusive: 77.2%,
CC(C)(C)Nc1nc(Cl)nc(NCCN2CCOCC2)n1,inconclusive: 6.93%,
CCOc1ccc2nc(N/C(N)=N/S(C)(=O)=O)nc(C)c2c1,inconclusive: -13.3%,
Oc1ccc(/C=N/Nc2nc(N3CCCC3)nc(N3CCCC3)n2)cc1O,inconclusive: -32.4%,
O=C(CN1C(=O)NC2(CCc3ccccc32)C1=O)c1ccc(Cl)cc1 (centres undefined),inconclusive: 18%,
O=C(Nc1ccc(C(F)(F)F)cc1)N1CCN(c2ccnc3cc(Cl)ccc23)CC1,inconclusive: 18.7%,
O=[N+]([O-])c1ccc(CNCc2cc(Cl)ccc2O)cc1,inconclusive: 2.4%,
Cc1cc(C(=O)N2CCN(c3cccc(Cl)c3)CC2)c(C)o1,,"inconclusive: 4.61 µM [rising, partial curve]"
CCC(Oc1ccc(Br)cc1Cl)C(=O)Nc1nnc(C2CC2)s1 (centres undefined),inconclusive: 51.7%,
CC(C)(C)NC(=O)CN(C(=O)Cn1nnc(-c2ccc(Cl)cc2)n1)C1CCN(Cc2ccccc2)CC1,inconclusive: -22.6%,
CC1(C)C(=O)OC(/C=C\c2cccc([N+](=O)[O-])c2)C(C)(C)C1=O (centres undefined),inconclusive: 68.6%,
COc1ccccc1CNC(=O)c1cnn2c(C(F)F)cc(C)nc12,,"inconclusive: 0.103 µM [activator, partial curve, poor fit]"
O=C(O)c1ccc(CSc2nnc(-c3ccc(Cl)cc3)o2)cc1,inconclusive: 19.6%,
CC1CN(C(=O)CSc2ncnc3sccc23)CC(C)O1 (centres undefined),inconclusive: 8.2%,
COc1ccc(NC(=O)COC(=O)C2C3CC4OC(=O)C2C4C3)cc1 (centres undefined),,"inconclusive: 0.164 µM [activator, full curve, poor fit]"
Cc1ccc(C)n1/N=C1/NC(=O)CS1,inconclusive: -22.5%,
COC(=O)c1c(NC(=O)COC(=O)CCNS(=O)(=O)c2ccc(NC(C)=O)cc2)sc(C)c1C,inconclusive: 36.2%,
O=C1C(=C(O)c2ccccc2)C(=O)c2ccccc21,,"inconclusive: 29.1 µM [falling, single point]"
